Results are given in words; binding and its absence hold for the method and conditions named. For part of these data: In cells and extracts the contact can be indirect. Some binding calls cover weakened binding; strength is not graded here. For part of these data: Sequences can lack the tags named with a protein. Blank lines part the entries; values can stand above or below the molecule they belong to.
Legend:
[1] = target: T1, YFP-SMP2 (full-length SWELLMAP 2 overexpressed in transgenic Arabidopsis) (Arabidopsis thaliana) (UniProt O23174); experiment: co-IP; YFP-SMP2 seedlings grown in the dark, transferred to red light (145 μmol/m^2·s) for 1 h; 400 μg total protein with GFP-Trap agarose, 4°C, 4 h; wash buffer with 300 mM NaCl; blots with anti-GFP and anti-phyB
T1 sequence: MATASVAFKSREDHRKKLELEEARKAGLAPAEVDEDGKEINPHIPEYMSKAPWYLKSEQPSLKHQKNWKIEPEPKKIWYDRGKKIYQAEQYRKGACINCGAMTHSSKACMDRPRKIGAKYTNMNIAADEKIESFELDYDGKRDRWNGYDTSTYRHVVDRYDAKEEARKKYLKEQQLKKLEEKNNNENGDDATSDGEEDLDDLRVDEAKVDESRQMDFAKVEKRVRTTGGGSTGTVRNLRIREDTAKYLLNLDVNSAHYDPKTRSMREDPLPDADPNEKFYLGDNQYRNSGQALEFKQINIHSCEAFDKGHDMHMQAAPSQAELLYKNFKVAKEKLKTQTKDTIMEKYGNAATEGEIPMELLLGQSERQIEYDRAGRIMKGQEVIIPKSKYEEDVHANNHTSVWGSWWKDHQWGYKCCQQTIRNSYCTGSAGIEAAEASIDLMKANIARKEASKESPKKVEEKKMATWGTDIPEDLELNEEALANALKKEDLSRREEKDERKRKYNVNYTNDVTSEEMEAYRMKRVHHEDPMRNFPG

The chains behind the UniProt entries cited, without tags or fusion partners. Where a name states a change or a piece, a line headed by the entry shows the natural chain unless it says otherwise. Residues count along the entry.
UniProt P14713: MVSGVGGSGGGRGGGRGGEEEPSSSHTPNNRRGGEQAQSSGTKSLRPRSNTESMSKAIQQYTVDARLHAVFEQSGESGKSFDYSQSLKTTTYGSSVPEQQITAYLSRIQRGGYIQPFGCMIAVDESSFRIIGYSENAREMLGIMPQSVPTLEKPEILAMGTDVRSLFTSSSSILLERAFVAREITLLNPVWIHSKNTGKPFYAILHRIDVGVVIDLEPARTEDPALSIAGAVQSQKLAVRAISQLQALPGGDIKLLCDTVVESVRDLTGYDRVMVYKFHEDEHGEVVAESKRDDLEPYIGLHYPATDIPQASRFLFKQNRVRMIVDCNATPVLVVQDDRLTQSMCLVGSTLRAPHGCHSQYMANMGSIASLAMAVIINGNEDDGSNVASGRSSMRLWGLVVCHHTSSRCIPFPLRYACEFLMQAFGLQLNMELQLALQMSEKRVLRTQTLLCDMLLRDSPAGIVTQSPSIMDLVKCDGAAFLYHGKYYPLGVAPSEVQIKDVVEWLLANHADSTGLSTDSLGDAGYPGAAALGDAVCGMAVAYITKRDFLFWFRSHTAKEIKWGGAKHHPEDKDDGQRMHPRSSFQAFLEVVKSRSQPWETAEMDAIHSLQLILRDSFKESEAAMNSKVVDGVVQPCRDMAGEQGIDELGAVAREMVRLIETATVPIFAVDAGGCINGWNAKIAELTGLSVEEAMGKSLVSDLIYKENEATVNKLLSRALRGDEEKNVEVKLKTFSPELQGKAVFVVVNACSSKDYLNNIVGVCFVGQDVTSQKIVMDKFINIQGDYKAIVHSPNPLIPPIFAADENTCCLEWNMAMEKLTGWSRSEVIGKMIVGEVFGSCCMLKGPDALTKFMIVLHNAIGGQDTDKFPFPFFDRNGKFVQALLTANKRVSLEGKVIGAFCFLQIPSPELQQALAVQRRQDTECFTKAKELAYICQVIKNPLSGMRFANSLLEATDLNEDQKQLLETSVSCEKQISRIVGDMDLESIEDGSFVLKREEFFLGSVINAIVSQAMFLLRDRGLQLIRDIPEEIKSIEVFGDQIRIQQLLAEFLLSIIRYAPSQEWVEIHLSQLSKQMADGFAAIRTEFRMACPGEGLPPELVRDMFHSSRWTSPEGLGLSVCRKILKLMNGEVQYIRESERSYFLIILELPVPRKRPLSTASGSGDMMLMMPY
phytochrome B C-terminal fragment (652-1172 aa) in pLexA: residues 652-1172 of P14713

[2] = target: phytochrome B C-terminal fragment (652-1172 aa) in pLexA (Arabidopsis thaliana) (UniProt P14713); experiment: two-hybrid; LexA system (Clontech), yeast strain EGY48 with p8op-LacZ; phyB fragment as bait in pLexA, SMP2 in pB42AD; SD/-His-Trp-Ura plates with 80 mg/L X-gal, blue colour, 30°C
[3] = target: phyB-nLUC (full-length phytochrome B fused to the N-terminal fragment of firefly luciferase) (Arabidopsis thaliana) (UniProt P14713); experiment: split reporter; firefly luciferase complementation imaging (LCI) in Nicotiana benthamiana leaves; plants 2 d in darkness, then 24 h red light

binding [1]: binds
Molecule: endogenous phytochrome B (phyB) (from UniProt P14713 1-1172)

binding [2]: binds
B1: SWELLMAP 2 (SMP2), full-length, in pB42AD (protein, UniProt O23174 1-536)
chain: MATASVAFKSREDHRKKLELEEARKAGLAPAEVDEDGKEINPHIPEYMSKAPWYLKSEQPSLKHQKNWKIEPEPKKIWYDRGKKIYQAEQYRKGACINCGAMTHSSKACMDRPRKIGAKYTNMNIAADEKIESFELDYDGKRDRWNGYDTSTYRHVVDRYDAKEEARKKYLKEQQLKKLEEKNNNENGDDATSDGEEDLDDLRVDEAKVDESRQMDFAKVEKRVRTTGGGSTGTVRNLRIREDTAKYLLNLDVNSAHYDPKTRSMREDPLPDADPNEKFYLGDNQYRNSGQALEFKQINIHSCEAFDKGHDMHMQAAPSQAELLYKNFKVAKEKLKTQTKDTIMEKYGNAATEGEIPMELLLGQSERQIEYDRAGRIMKGQEVIIPKSKYEEDVHANNHTSVWGSWWKDHQWGYKCCQQTIRNSYCTGSAGIEAAEASIDLMKANIARKEASKESPKKVEEKKMATWGTDIPEDLELNEEALANALKKEDLSRREEKDERKRKYNVNYTNDVTSEEMEAYRMKRVHHEDPMRNFPG

binding [3]: binds
B2: cLUC-SMP2 (full-length SWELLMAP 2 fused to the C-terminal fragment of firefly luciferase) (protein, UniProt O23174 1-536)
chain: MATASVAFKSREDHRKKLELEEARKAGLAPAEVDEDGKEINPHIPEYMSKAPWYLKSEQPSLKHQKNWKIEPEPKKIWYDRGKKIYQAEQYRKGACINCGAMTHSSKACMDRPRKIGAKYTNMNIAADEKIESFELDYDGKRDRWNGYDTSTYRHVVDRYDAKEEARKKYLKEQQLKKLEEKNNNENGDDATSDGEEDLDDLRVDEAKVDESRQMDFAKVEKRVRTTGGGSTGTVRNLRIREDTAKYLLNLDVNSAHYDPKTRSMREDPLPDADPNEKFYLGDNQYRNSGQALEFKQINIHSCEAFDKGHDMHMQAAPSQAELLYKNFKVAKEKLKTQTKDTIMEKYGNAATEGEIPMELLLGQSERQIEYDRAGRIMKGQEVIIPKSKYEEDVHANNHTSVWGSWWKDHQWGYKCCQQTIRNSYCTGSAGIEAAEASIDLMKANIARKEASKESPKKVEEKKMATWGTDIPEDLELNEEALANALKKEDLSRREEKDERKRKYNVNYTNDVTSEEMEAYRMKRVHHEDPMRNFPG

From paper PMC8867171
